Reference: article PMC12591164
No constants are given. Whether binding was seen depends on the method and setting. Binding seen in cells or lysates may run through a third protein. Binding calls can cover weak binding; strength is not graded here.

The chains behind the UniProt entries cited, without tags or fusion partners. Where a name states a change or a piece, a line headed by the entry shows the natural chain unless it says otherwise.
UniProt P58371: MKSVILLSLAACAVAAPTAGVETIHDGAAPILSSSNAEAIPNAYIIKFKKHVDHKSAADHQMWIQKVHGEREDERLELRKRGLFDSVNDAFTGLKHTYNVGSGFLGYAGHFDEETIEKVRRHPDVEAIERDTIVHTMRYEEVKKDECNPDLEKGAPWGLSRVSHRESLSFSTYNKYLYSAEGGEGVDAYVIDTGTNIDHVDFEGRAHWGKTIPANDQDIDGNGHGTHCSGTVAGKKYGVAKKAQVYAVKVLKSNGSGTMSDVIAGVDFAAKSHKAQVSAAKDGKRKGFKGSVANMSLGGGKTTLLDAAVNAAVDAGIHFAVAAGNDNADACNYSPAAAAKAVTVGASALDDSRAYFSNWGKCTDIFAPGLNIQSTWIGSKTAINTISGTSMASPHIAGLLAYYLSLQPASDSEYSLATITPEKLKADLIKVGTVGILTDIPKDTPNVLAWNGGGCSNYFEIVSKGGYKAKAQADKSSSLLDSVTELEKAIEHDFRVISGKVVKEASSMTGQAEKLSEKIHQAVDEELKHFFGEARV
UniProt G4NDG4: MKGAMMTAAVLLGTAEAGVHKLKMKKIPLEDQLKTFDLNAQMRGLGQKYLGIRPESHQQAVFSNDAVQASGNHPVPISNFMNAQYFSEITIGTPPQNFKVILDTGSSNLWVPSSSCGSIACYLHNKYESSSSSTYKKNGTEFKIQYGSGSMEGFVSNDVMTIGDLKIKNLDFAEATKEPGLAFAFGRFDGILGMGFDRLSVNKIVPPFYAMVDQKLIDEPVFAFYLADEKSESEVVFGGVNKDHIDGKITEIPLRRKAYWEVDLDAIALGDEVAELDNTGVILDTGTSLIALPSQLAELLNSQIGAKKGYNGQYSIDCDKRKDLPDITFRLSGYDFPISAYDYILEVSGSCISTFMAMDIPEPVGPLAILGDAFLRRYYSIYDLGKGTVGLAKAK

Target: MoPrb1-nYFP (Magnaporthe oryzae) (UniProt P58371)
Test: split reporter

In the case of “cYFP-MoPep4 (from UniProt G4NDG4) (enzyme)”, the binding was “binds”.
